Drawing on paper PMC3989317, this text covers binding for two substances.

Chains of the proteins cited; added tags and fusions are not shown. Lines headed by an entry give the natural chain unless they say otherwise; changes in a name come on top. A line that says so, or that is headed by a name, gives the form on record, which may keep a tag or linker.
UniProt Q8K4Q0: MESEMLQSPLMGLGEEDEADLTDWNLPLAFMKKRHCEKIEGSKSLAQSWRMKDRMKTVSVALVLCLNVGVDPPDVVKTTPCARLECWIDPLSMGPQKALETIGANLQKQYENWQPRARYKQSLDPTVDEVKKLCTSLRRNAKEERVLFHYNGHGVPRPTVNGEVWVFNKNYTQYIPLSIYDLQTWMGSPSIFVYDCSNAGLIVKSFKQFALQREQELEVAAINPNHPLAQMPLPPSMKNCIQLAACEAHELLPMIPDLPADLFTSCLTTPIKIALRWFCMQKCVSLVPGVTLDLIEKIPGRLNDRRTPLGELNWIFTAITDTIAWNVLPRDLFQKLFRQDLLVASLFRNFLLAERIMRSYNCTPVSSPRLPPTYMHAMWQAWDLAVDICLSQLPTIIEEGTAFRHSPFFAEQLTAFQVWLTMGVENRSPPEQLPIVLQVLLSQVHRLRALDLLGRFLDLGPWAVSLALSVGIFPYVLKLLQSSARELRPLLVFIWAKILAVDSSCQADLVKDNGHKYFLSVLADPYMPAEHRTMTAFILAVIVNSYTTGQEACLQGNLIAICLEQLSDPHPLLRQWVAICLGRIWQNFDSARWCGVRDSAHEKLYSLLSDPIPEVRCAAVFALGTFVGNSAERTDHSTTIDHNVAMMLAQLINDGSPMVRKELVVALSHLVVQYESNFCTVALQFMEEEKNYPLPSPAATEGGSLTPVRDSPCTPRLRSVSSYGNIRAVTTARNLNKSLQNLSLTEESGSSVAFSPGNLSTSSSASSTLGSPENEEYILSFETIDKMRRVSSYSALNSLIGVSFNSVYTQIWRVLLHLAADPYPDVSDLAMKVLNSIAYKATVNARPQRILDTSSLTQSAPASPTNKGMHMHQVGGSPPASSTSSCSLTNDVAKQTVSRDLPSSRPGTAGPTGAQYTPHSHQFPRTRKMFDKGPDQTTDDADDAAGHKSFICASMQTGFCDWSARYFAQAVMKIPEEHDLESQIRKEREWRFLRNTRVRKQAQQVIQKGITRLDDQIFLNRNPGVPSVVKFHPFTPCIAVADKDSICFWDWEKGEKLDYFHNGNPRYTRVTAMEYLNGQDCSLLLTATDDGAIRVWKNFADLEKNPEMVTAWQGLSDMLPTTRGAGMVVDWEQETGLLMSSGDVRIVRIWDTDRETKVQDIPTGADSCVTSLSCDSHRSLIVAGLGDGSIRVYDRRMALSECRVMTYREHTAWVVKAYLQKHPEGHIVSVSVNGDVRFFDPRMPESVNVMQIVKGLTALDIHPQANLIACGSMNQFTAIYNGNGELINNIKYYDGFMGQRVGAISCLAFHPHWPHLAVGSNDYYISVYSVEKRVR
FLAG-tagged wild-type RagB (Q5VZM2-2, form named): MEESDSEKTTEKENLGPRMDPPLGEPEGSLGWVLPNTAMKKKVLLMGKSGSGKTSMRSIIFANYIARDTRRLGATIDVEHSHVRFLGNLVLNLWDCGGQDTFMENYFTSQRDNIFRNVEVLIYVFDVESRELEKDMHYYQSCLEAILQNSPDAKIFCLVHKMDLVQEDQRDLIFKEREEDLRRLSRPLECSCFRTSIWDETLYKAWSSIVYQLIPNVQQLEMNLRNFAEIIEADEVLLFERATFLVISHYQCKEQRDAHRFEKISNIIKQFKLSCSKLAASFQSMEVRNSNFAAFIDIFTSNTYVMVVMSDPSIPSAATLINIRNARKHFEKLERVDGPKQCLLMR

Assay [1] has as its target Raptor (mouse (endogenous in C2C12)) (UniProt Q8K4Q0). The assay can be described thus: co-IP; C2C12 cells transiently expressing FLAG-RagB, serum starved, with or without 50 µM UA and 10 mM leucine; in-cell cross-linking with 1 mg/ml DSP before lysis (0.3% CHAPS); Raptor immunoprecipitated, associated proteins detected by Western blot.
For assay [2], the target named is FLAG-tagged wild-type RagB (UniProt Q5VZM2). The assay can be described thus: co-IP; C2C12 cells transiently expressing FLAG-RagB, serum starved, with or without leucine and 50 µM UA; in-cell cross-linking with DSP before lysis (0.3% CHAPS); FLAG-RagB immunoprecipitated with the FLAG antibody, mTOR and Raptor detected by Western blot. For orientation: Immunoblotting shows a protein as a band on a membrane.

These are yes or no findings as the source states them, for the method shown. In cells and extracts the contact can be indirect. Some results given as binding are weak or reduced against the parent protein; the word gives no strength.

“FLAG-tagged wild-type RagB (from UniProt Q5VZM2-2 1-346)”: the binding entry in assay [1] was “binds”.

Raptor (from UniProt Q8K4Q0 1-1335): the binding result in assay [2] is recorded as “binds”.
